Results from article PMC10568961 (Research in Pharmaceutical Sciences, 2023).

Key:
[1] = system: A549 (human lung carcinoma) cells; experiment: Trypan blue dye exclusion assay, A549 cells; assay type: cell-based; conditions: 72 h
How it was run: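 Cells were seeded at 5,000/well for 24 h: MRC-5 in EMEM and A549 in F-12K, each with 10% FBS. They were then given test compound (50, 100, 150 μg/mL), cisplatin (0.5, 1, 2 μg/mL) or 0.5% DMSO control for 24–72 h at 37 °C, 5% CO2. After trypsinisation, viable cells were counted by trypan blue exclusion on a hemocytometer (quadruplicate wells). IC50 came from growth curves. At least three repeats.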

[2] = system: A549 (human lung carcinoma) cells; experiment: MTS cell viability assay, A549 cells; assay type: cell-based; conditions: results at 72-h

With `N.N.[Cl][Pt][Cl]` [DDP, cis-diamminedichloroplatinum II] the “IC50 values, A549 cells” value [1] was 0.42 ± 0.04 µg/mL and the “IC50 values, A549 cells” value [2] was 0.63 ± 0.03 µg/mL.
